The target in assay [1] is T1, Kir4.1 protein (kcnj10-encoded inwardly rectifying potassium channel) (mouse (endogenous in OPCs)) (UniProt Q9JM63).
T1 sequence: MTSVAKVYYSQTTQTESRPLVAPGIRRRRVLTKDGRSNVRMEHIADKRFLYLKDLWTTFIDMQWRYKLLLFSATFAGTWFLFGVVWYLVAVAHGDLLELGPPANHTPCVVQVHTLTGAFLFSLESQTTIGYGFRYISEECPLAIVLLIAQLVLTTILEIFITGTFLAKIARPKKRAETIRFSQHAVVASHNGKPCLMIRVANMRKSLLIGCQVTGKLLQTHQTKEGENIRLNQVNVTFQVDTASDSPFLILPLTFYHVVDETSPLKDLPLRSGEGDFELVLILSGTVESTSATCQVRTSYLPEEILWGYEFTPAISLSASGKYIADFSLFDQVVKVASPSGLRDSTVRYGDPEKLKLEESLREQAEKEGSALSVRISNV
As to the kind of experiment: co-IP; reciprocal co-immunoprecipitation of endogenous proteins in OPCs; no further conditions told.

Sequences of proteins named here, by UniProt entry; tags and fusion partners are left off.
UniProt P39688: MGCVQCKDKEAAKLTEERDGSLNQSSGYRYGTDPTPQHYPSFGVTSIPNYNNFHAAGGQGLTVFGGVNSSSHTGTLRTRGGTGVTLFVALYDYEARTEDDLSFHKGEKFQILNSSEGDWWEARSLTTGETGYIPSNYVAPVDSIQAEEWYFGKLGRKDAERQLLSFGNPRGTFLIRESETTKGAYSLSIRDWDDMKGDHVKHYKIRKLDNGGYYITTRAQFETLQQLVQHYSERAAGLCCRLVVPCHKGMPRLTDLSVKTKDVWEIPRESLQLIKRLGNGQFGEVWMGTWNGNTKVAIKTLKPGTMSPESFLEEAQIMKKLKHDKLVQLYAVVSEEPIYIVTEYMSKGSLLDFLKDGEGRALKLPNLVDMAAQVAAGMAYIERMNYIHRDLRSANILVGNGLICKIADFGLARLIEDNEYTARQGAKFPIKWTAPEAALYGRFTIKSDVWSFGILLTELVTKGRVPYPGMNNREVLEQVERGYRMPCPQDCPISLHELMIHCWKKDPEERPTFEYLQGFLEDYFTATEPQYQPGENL

Assay [2] concerns the target FYN tyrosine kinase (mouse (endogenous in OPCs)) (UniProt P39688). The assay is described as above.

No constants are given. Whether binding was seen depends on the method and setting. Binding seen in cells or lysates may run through a third protein. Some binding calls cover weakened binding; strength is not graded here.

For the molecule “FYN tyrosine kinase (from UniProt P39688 1-537)”, the binding entry in assay [1] is reported as “binds”.

B1: Kir4.1 protein (kcnj10-encoded inwardly rectifying potassium channel) (protein, UniProt Q9JM63 1-379)
chain: T1 sequence
Regarding B1, the binding result in assay [2] is recorded as “binds”.

The record behind these values is publication PMC12442624.
